Test results as given in PubChem BioAssay AID743266 (National Center for Advancing Translational Sciences (NCATS), 2014).
The whole screen tested about 410,000 compounds, of which about 310 (0.076%) were called active. The shares of active, inactive and inconclusive entries below differ from those in the screen. Calls come from the whole dose curve; as a rule, active = well fitted activation curve with a large enough effect; inconclusive = small, poorly fitted or top-dose-only effect, or another doubt; inactive = no such curve, though single readings can be large or run the other way. A potency beside an inconclusive call is a rough fit, not a confirmed value.
Note: nearly all actives have a fitted effect of over 55% in size.
Potency is the fitted concentration of half-maximal effect.

Sequences of proteins named here, by UniProt entry; tags and fusion partners are left off.
UniProt Q03431, whole entry, looked up: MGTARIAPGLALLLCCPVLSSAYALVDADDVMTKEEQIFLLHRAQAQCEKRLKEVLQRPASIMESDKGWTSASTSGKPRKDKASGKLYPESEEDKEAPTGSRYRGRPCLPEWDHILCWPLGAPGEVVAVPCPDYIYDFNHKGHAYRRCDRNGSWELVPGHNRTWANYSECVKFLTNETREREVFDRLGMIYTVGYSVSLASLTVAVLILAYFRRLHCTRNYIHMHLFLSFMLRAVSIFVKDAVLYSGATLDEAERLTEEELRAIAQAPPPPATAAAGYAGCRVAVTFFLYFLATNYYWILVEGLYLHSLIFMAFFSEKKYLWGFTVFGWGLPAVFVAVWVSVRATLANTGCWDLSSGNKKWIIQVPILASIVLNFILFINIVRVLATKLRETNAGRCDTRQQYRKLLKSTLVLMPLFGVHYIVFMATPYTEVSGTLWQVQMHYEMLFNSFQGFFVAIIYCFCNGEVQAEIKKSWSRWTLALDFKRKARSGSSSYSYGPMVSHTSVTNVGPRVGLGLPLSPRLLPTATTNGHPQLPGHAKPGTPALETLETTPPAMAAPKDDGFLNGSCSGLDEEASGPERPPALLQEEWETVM

What follows are compounds tested against Parathyroid hormone/parathyroid hormone-related peptide receptor (Homo sapiens) (UniProt Q03431) (assay: qHTS for PTHR1 Agonists: Primary Screen). Conditions: HEK293 GP2 PTHR1 cells, GloSensor cAMP luminescence, 1 h; activation: at 115 µM (top of the series) unless noted; series mostly up to 115 µM.
From the text: The goal of the proposed studies is to discover new compounds that act as potent agonists on the parathyroid hormone receptor type-1 (PTHR1). The PTHR1 plays critical roles in maintaining blood calcium and phosphate levels, as well as in controlling bone remodeling. PTHR1 agonists could thus be useful for treating diseases such as hypoparathyroidism and osteoporosis. In the former disease, an agonist drug would help maintain normal blood calcium and phosphate levels under conditions of parathyroid hormone deficiency. In the latter disease, an agonist drug would stimulate new bone formation and thus reduce the risk of fracture, under conditions of bone fragility, as occurs in aging.
To that end, we performed a quantitative high-throughput screening (qHTS) of the Molecular Libraries Probe Centers Network (MLPCN) compound libraries at the NIH Chemical Genomics Center (NCGC) for the parathyroid hormone receptor type-1 (PTHR1) using a unique HEK-293-derived cell line (GP2) that expresses the PTHR1 and a glosensor cAMP reporter construct.
NIH Molecular Libraries Probe Production Centers Network [MLPCN]
NIH Chemical Genomics Center [NCGC]
Assay Submitter (PI): Thomas Gardella, Massachusetts General Hospital
4 microL are dispensed into a 1536-well micro plate to yield 3,000 cells/well. The plates are then incubated overnight, after which 4 microL of 0.5 mM of BIoTium Luciferin plus 0.5 mM IBMX are added. They are then incubated at 37 degree for one hour before 23 nL of compounds are added through pinning and then incubated at 37 degree again for another hour. After the plates are kept at room temperature for 15 min before they are read on the ViewLux to measure luminescence.
For `Cc1[nH]c(=O)[nH]c(=O)c1Sc1ccccc1[N+](=O)[O-]`, the “outcome” value was “inactive”.
In the case of `Cc1ccccc1NC(=O)Cn1c(=O)n(CCC(=O)NCc2ccc3c(c2)OCO3)c(=O)c2sccc21`, the Potency is reported as inconclusive: 28.2 µM [activator, partial curve, poor fit].
`Cn1c(NN)nc2ccccc2c1=O` was tested, and the Potency was inconclusive: 79.4 µM [activator, partial curve, poor fit].
In the case of `CCn1c(SCc2ccc(Cl)cc2Cl)nc2nc3c(cc2c1=O)CCCC3`, the Potency is reported as inconclusive: 17.8 µM [activator, partial curve, poor fit].
`CCN(CC)C(=O)Cn1cc(S(=O)(=O)CC(=O)NCc2ccc3c(c2)OCO3)c2ccccc21` was tested, and the Potency was inconclusive: 126 µM [activator, single point].
With `O=C(Nc1cc(=O)[nH]c2ncnn12)c1ccco1` the Potency was inconclusive: 126 µM [activator, single point].
`C/C(=N/n1cnnc1)c1cccnc1` was tested, and the Potency was active: 15.8 µM.
With `COc1ccc(-c2nc3cc(C(C)C)ccc3o2)cc1NC(=O)c1ccc(C)c(Cl)c1` the Potency was inconclusive: 63.1 µM [activator, partial curve, poor fit].
With `Cc1ccc(Cl)cc1N1CCN(S(=O)(=O)c2ccc3oc(=O)c4ncn(C)c4c3c2)CC1` the Potency was inconclusive: 44.7 µM [activator, partial curve, poor fit].
With `COc1cc(C(=O)NC(=S)N(C)Cc2ccccc2)cc(OC)c1OC` the activation was inconclusive: 57.9% [activator].
In the case of `O=C(NN=C1CCCCCC1)c1c[nH]c2ccccc12`, the Potency is reported as inconclusive: 141 µM [activator, single point].
In the case of `Cc1ccnc2nc(C(=O)OCC(=O)NC3CCCC(C)C3C)nn12` (centres undefined), the Potency is reported as inconclusive: 5.01 µM [activator, full curve, poor fit].
In the case of `COc1ccc(NC(=O)CSCC(=O)Nc2ccc(S(=O)(=O)N3CCOCC3)cc2)cc1`, the Potency is reported as inconclusive: 3.98 µM [activator, full curve, poor fit].
`CC(=O)C1CCN(Cc2ccccc2)CC1` was tested, and the Potency was inconclusive: 141 µM [activator, single point].
In the case of `CC1CCC(C(=O)c2c(O)c3ccccc3oc2=O)CC1` (centres undefined), the activation is reported as inconclusive: -89.4% [activator] [at 57.5 µM].
`Cc1ccc2[nH]c(=O)c(CN(Cc3cccs3)Cc3nnnn3CC3CCCO3)cc2c1` (centres undefined) was tested, and the Potency was inconclusive: 2.24 µM [activator, full curve, poor fit].
With `Cc1ccc(-c2nn(-c3ccccn3)c(=O)c3ccccc23)cc1` the Potency was inconclusive: 17.8 µM [activator, partial curve, poor fit].
In the case of `CSc1cccc(NC(=O)CCCOc2cc(=O)n(C)c3ccccc23)c1`, the activation is reported as inconclusive: -61.6% [activator].
In the case of `Clc1cccc(OCCN2CCCC2)c1`, the Potency is reported as inconclusive: 112 µM [activator, single point].
With `COC(=O)c1ccc(CN(Cc2ccc(OC)c(OC)c2)S(=O)(=O)c2ccc(F)c(C(=O)Nc3cc(C)ccc3C)c2)cc1` the activation was inconclusive: 32% [activator].
For `CC1(C)N=C(c2ccccn2)C(C)(C)N1O`, the Potency was inconclusive: 50.1 µM [activator, partial curve, poor fit].
For `C/C(=N\NC(=O)C1CC1c1ccccc1)c1cccc([N+](=O)[O-])c1` (centres undefined), the Potency was inconclusive: 31.6 µM [activator, single point].
With `CCCn1c(N)c(N(CCOC)C(=O)c2ccccc2)c(=O)[nH]c1=O` the “outcome” value was “inactive”.
With `CCN(CC)CCNC(=O)c1ccc2c(=O)n3nc(Nc4cccc(Cl)c4C)sc3nc2c1` the Potency was inconclusive: 31.6 µM [activator, partial curve, poor fit].
In the case of `COc1ccc(NC(=O)CCSc2nc(C)cs2)cc1`, the Potency is reported as inconclusive: 112 µM [activator, single point].
In the case of `Cc1nc2nc(-c3cccnc3)[nH]n2c(=O)c1C`, the Potency is reported as inconclusive: 3.55 µM [activator, partial curve, poor fit].
In the case of `Cc1cccc(C(=O)Nc2nc3nc(-c4ccccc4)cc(=O)n3[nH]2)c1`, the activation is reported as inconclusive: 39.7% [activator].
`Cn1cnc2c(=O)oc3ccc(S(=O)(=O)N4CCN(c5cccc(C(F)(F)F)c5)CC4)cc3c21` was tested, and the Potency was inconclusive: 126 µM [activator, single point].
With `Cn1c(=O)n(C)c2cc(N3CCOCC3)c(NC(=O)c3ccc(Cl)cc3)cc21` the Potency was inconclusive: 100 µM [activator, partial curve, poor fit].
With `CC(C)(C)c1cccc(Oc2nn[nH]n2)c1` the activation was inconclusive: 115% [activator] [at 57.5 µM].
In the case of `Cc1ccc(S(=O)(=O)NCC2(c3ccccc3)CCN(C)CC2)cc1`, the Potency is reported as inconclusive: 39.8 µM [activator, single point].
`N#Cc1ccc(-c2nc3ccc(Br)cn3c2Cc2ccccc2)cc1` was tested, and the “activation” value was inactive: -41.6%.
With `C=CCn1c(SCC(=O)N2CCCCC2)nc(O)cc1=O` the Potency was inconclusive: 44.7 µM [activator, partial curve, poor fit].
With `CCSc1ccc(C(=O)Nc2ccc(-c3nc4ccc(C)cc4s3)cc2)cc1` the Potency was inconclusive: 35.5 µM [activator, single point].
With `Cn1c(=O)c2c(nc(CN3CCN(c4ccccc4F)CC3)n2CCN2CCOCC2)n(C)c1=O` the Potency was inconclusive: 28.2 µM [activator, single point].
With `CC1(C(=O)NS(=O)(=O)c2ccc(Cl)cc2)CCN1C(=O)CCc1ccc(Cl)cc1Cl` (centres undefined) the “outcome” value was “inactive”.
`CCOC(=O)C1(C)NC(c2ccc(OC)cc2OC)C2C(=O)N(CC)C(=O)C21` (centres undefined) was tested, and the Potency was inconclusive: 39.8 µM [activator, partial curve, poor fit].
In the case of `O=C(CCC(=O)Nc1ccccc1)NCCO`, the “outcome” value is reported as “inactive [at 57.5 µM]”.
`COc1cc(/C=C2\SC(=O)NC2=O)ccc1Oc1cnccn1` was tested, and the Potency was inconclusive: 7.08 µM [activator, full curve, poor fit].
With `Cc1cc(C)c(NC(=O)CSc2nc3ccccc3c3nc(CCn4cncc4C)nn23)c(C)c1` the “outcome” value was “inactive”.
In the case of `COc1cc(C(=O)N(Cc2ccc(F)cc2)Cc2ccco2)cc(OC)c1OC`, the Potency is reported as inconclusive: 50.1 µM [activator, partial curve, poor fit].
In the case of `CC(=O)Nc1cncc(-c2cccc(C(=O)N3CCOCC3)c2)n1`, the Potency is reported as inconclusive: 14.1 µM [activator, partial curve, poor fit].
`Cc1ccccc1OC(=O)C1C(c2ccccc2)C(C(=O)O)C1c1ccccc1` (centres undefined) was tested, and the Potency was inconclusive: 17.8 µM [activator, partial curve, poor fit].
With `Cc1c(Cl)cccc1NC(=S)N1CCCCCC1` the activation was inconclusive: 46.5% [activator].
In the case of `COc1ccc(OC)c(NC(=O)c2ccc3c(SCC(=O)O)c4c(nc3c2)CCCC4)c1`, the “activation” value is reported as inactive: -20.9%.
With `Nc1ccc(S(=O)(=O)NC(=O)c2ccccc2)cc1` the Potency was inconclusive: 0.767 µM [activator, full curve].
For `CC1=C(C(N)=O)C(c2ccccc2F)n2nc(CCCO)nc2N1` (centres undefined), the Potency was inconclusive: 2.82 µM [activator, partial curve, poor fit].
With `CCOc1cccc(CC(=O)N2CCc3c([nH]c4ccc(OC)cc34)C2c2ccc(F)cc2)c1OCC` (centres undefined) the “outcome” value was “inactive”.
For `COc1ccc(-c2noc3c2-c2nc(-c4ccccc4F)sc2CC3)cc1`, the Potency was inconclusive: 50.1 µM [activator, partial curve, poor fit].
In the case of `C=CCN1C(=O)C(CC(=O)O)SC1=Nc1cccc([N+](=O)[O-])c1` (centres undefined), the Potency is reported as inconclusive: 100 µM [activator, partial curve, poor fit].
With `Cc1ccc(CNC(=O)COC(=O)COc2ccc(C#N)cc2)cc1` the Potency was inconclusive: 56.2 µM [activator, single point].
`Cc1cccc(C(=O)N2CCc3cc(CNC(=O)CSc4ccccc4)ccc32)c1` was tested, and the Potency was inconclusive: 158 µM [activator, single point].
`O=c1ccn([C@@H]2O[C@H](COS(=O)(=O)O)[C@@H](O)[C@H]2O)c(=O)[nH]1` was tested, and the Potency was inconclusive: 44.7 µM [activator, partial curve].
In the case of `O=C(NCc1cccs1)c1cc2c(s1)CS(=O)(=O)C2`, the Potency is reported as inconclusive: 35.5 µM [activator, single point].
`Cc1cc(NC(C)c2ccccc2)n2ncc(-c3ccccc3)c2n1` (centres undefined) was tested, and the “activation” value was inactive: -24%.
With `COc1ccc(/C=N/NC(=O)c2ccccc2Cl)cc1CSc1nc2ccccc2s1` the Potency was inconclusive: 44.7 µM [activator, single point].
With `Cc1ccc(S(=O)(=O)N2CCN(S(=O)(=O)N3CCOCC3)CC2)c(C)c1` the Potency was inconclusive: 56.2 µM [activator, partial curve, poor fit].
`COc1ccc(-c2csc(NC(=O)c3cccc(S(=O)(=O)N4CCN(C)CC4)c3)n2)cc1` was tested, and the “activation” value was inactive: -9.72%.
For `c1ccc(CCNc2ncnc3scc(C4COc5ccccc5O4)c23)cc1` (centres undefined), the activation was inconclusive: -68.9% [activator] [at 57.5 µM].
In the case of `CCOc1cc(CNC(=O)C2CCN(c3nc4ccccc4[nH]3)CC2)cc(OCC)c1OCC`, the Potency is reported as inconclusive: 15.8 µM [activator, partial curve].
In the case of `COc1ccc(/C=C(/C#N)C(=O)Nc2ccc(C)cc2C)cc1C(=O)O`, the Potency is reported as inconclusive: 3.16 µM [activator, single point].
With `Cc1ccc2nsnc2c1NC(=O)c1ccc(-c2cc(Cl)ccc2Cl)o1` the activation was inconclusive: 35.5% [activator] [at 57.5 µM].
For `N#Cc1ccc(OCC(=O)Nc2ccncc2)cc1`, the activation was inconclusive: 31.1% [activator].
For `CC(=O)NNC(=O)CSc1nnc(-c2ccccc2)c(-c2ccccc2)n1`, the “activation” value was inactive: -10.1%.
